Measurements taken from PubChem BioAssay AID540276 (National Center for Advancing Translational Sciences (NCATS), 2011).
Among all 300,000 compounds or so, about 5,400 (1.8%) were called active. Inconclusive means that the source gave no clear call. Such entries were picked first, then a sample of the others. The call rests on the fitted dose curve; tested in HEK293 cells. Where the call is inconclusive, the potency comes from a doubtful curve fit.
On the % scale 0 is the no-effect control and ±100 the full control effect; potency means the concentration at half of the fitted maximal effect.

Assay: qHTS for inhibitors of binding or entry into cells for Marburg Virus
Conditions: Marburg virus pseudotyped entry inhibition, cell reporter; activity change, negative = inhibition: at 37.8 µM (top of the series) unless noted
With `Cc1c(-c2n[nH]c(=S)n2-c2ccc(C(F)(F)F)cc2)nnn1-c1ccccc1` the Potency was inconclusive: 6.31 µM [activator, single point]. With `CCOc1ccccc1C(=O)Nc1c(NC)c2ccccc2oc1=O` the “activity change, negative = inhibition” value was inactive: -16.5% [at 46.1 µM]. For `O=C(Nc1nnc(-c2ccccc2Cl)o1)c1cc2cc([N+](=O)[O-])ccc2s1`, the “activity change, negative = inhibition” value was inactive: 12.7%. With `COc1cccc(-c2nc(-c3ccc(NC(=O)c4cccnc4)cc3)no2)c1` the Potency was inconclusive: 1.41 µM [activator, partial curve, poor fit]. In the case of `CCc1nc(CN2CCCC(C(=O)c3ccc4c5c(cccc35)CC4)C2)c(C)[nH]1` (centres undefined), the Potency is reported as inconclusive: 7.08 µM [inhibitor, partial curve, poor fit]. For `CCN(CC)c1ccc(NC(=O)c2cnn(CC)c2)cc1`, the Potency was inconclusive: 5.01 µM [activator, partial curve, poor fit]. With `O=C(CSc1nc2ccccc2c(=O)[nH]1)Nc1ccccc1O` the “activity change, negative = inhibition” value was inactive: 5.92% [at 46.1 µM]. In the case of `COC(=O)C1=C(C)N(CCc2c[nH]c3ccc(OC)cc23)C(=O)C1`, the Potency is reported as inconclusive: 0.708 µM [inhibitor, full curve, poor fit]. With `CC(C)C1Oc2ccccc2N(CC(=O)NCCCN2C(C)CCCC2C)C1=O` (centres undefined) the “activity change, negative = inhibition” value was inactive: -11.4%. With `CCOc1ccc(-n2cc(C(=O)Nc3cccc(C)n3)c3cc(OC)c(OC)cc3c2=O)cc1` the Potency was inconclusive: 11.2 µM [inhibitor, partial curve]. For `COc1ccc(N2CC(O)=C(c3nc4ccccc4s3)C2=N)cc1`, the Potency was inconclusive: 29.1 µM [inhibitor, single point]. For `N#C/C(=C/c1ccc([N+](=O)[O-])cc1)C(N)=O`, the “activity change, negative = inhibition” value was inactive: -2.11%. With `Cc1cc(C)n2nc(-c3cccc(Br)c3)cc2n1` the “activity change, negative = inhibition” value was inactive: 2.79% [at 46.1 µM]. With `O=C(/C=C/c1ccco1)NCCc1ccccc1` the “activity change, negative = inhibition” value was inactive: 29.5% [at 46.1 µM]. In the case of `CCn1c(=O)cc(SCC(=O)N2CCC(C)CC2)c2ccccc21`, the Potency is reported as inconclusive: 0.651 µM [inhibitor, single point]. With `Cc1ccc(SCCOCCN2CCc3ccccc3C2)cc1` the Potency was inconclusive: 29.1 µM [inhibitor, single point]. In the case of `N#CC1=C(N)Oc2c(ccc3cccnc23)C1c1ccncc1` (centres undefined), the Potency is reported as inconclusive: 22.4 µM [inhibitor, single point]. In the case of `COc1cccc(/C=C2/C(=O)NN(c3ccc(C)c(C)c3)C2=O)c1`, the “activity change, negative = inhibition” value is reported as inactive: 13.2% [at 46.1 µM]. With `Cc1nc(-c2ccncc2)sc1C(=O)Nc1ccc(Cl)cc1` the “activity change, negative = inhibition” value was inactive: -9.76% [at 46.1 µM]. With `COc1cc(/C=C(\C#N)c2nc3ccc(C)cc3[nH]2)cc([N+](=O)[O-])c1O` the Potency was inconclusive: 4.47 µM [activator, full curve, poor fit]. In the case of `NC1=NC(c2cccc(Cl)c2)N(CCc2ccc(F)cc2)C(N)=N1` (centres undefined), the Potency is reported as inconclusive: 3.55 µM [inhibitor, single point]. With `O=C(Nc1ccc(Cl)cn1)c1ccc(Br)c(S(=O)(=O)N2CCCCC2)c1` the Potency was inconclusive: 5.62 µM [activator, single point]. For `Cc1cc(C(=O)OCc2nnc(-c3ccccc3)o2)c(C)n1-c1ccccc1`, the “activity change, negative = inhibition” value was inactive: -29.7%. For `Cc1c(-c2ccccc2)n[nH]c1C(=O)N=Nc1c(O)[nH]c2ccccc12`, the Potency was inconclusive: 35.5 µM [inhibitor, single point]. With `O=C(c1cccc([N+](=O)[O-])c1)N1c2ncnn2C2(CCCCC2)[C@@H]2CCCC[C@@H]21` the “activity change, negative = inhibition” value was inactive: 0.703% [at 46.1 µM]. In the case of `CC(=O)Nc1ccc(S(=O)(=O)NC2(C(F)(F)F)NC(=O)N(c3ccc(C)cc3)C2=O)cc1` (centres undefined), the Potency is reported as “inactive”. With `CSc1cccc(-n2cc(-c3ccc4c(c3)OCO4)[nH]c2=O)c1` the Potency was inconclusive: 5.62 µM [inhibitor, single point]. In the case of `COc1ccc(C2=NN(CN3C(=O)C(=O)c4ccccc43)C(c3ccc(Br)cc3)C2)cc1` (centres undefined), the Potency is reported as inconclusive: 13 µM [inhibitor, partial curve, poor fit]. For `O=C(/C=C/c1ccccc1)NC(=S)Nc1ccccc1O`, the Potency was inconclusive: 31.6 µM [inhibitor, single point]. For `CCCCn1c(O)c(C(=O)/C=C/c2c[nH]c3ccccc23)c(=O)[nH]c1=O`, the Potency was inconclusive: 5.62 µM [activator, single point]. With `CC1(NC(=O)Cc2ccc(S(=O)(=O)N3CCOCC3)s2)CCS(=O)(=O)C1` (centres undefined) the Potency was inconclusive: 12.6 µM [activator, partial curve, poor fit]. In the case of `Cc1ccc(Nc2cc(=O)n(C3CCCCC3)c(=O)[nH]2)cc1C`, the Potency is reported as inconclusive: 15.8 µM [inhibitor, single point]. In the case of `CCCc1nnc(NC(=O)c2cccs2)s1`, the Potency is reported as inconclusive: 5.62 µM [activator, single point]. In the case of `O=C(NCCCn1ccnc1)c1ccc(Cl)cc1`, the Potency is reported as inconclusive: 1.58 µM [inhibitor, partial curve, poor fit]. In the case of `COc1ccc(N(CC(=O)N2CCOCC2)S(=O)(=O)c2ccccc2)cc1Cl`, the “activity change, negative = inhibition” value is reported as inactive: 16.6%. For `O=C(Nc1nnc(SCc2ccc(F)cc2)s1)C1Cc2ccccc2CN1C(=O)c1ccco1` (centres undefined), the Potency was inconclusive: 0.112 µM [inhibitor, full curve, poor fit]. For `Fc1ccccc1N1CCN(c2ncnc3[nH]ncc23)CC1`, the Potency was active: 5.01 µM. In the case of `CC1=CC(C)(C)Nc2ccc(OC(=O)CN3C(=O)c4cccc5cccc(c45)C3=O)cc21`, the “activity change, negative = inhibition” value is reported as inactive: -20.4%. For `Nc1nc(-c2ccccc2)cc(-c2ccccc2O)n1`, the “activity change, negative = inhibition” value was inactive: -25.6%. With `CCCCC/C(=N/O)c1c(C)[nH]c2ccccc12` the Potency was inconclusive: 3.98 µM [inhibitor, partial curve, poor fit]. In the case of `CCCCCn1cnc2sc(CC)cc2c1=O`, the Potency is reported as inconclusive: 2 µM [activator, partial curve, poor fit]. With `O=C1c2ccccc2C(=O)N1CN(C(=O)c1ccccc1[N+](=O)[O-])c1ccc(F)cc1` the Potency was inconclusive: 3.55 µM [activator, partial curve, poor fit]. In the case of `COc1cc(C2C(C(=O)c3cc4ccccc4o3)=C(O)C(=O)N2CCN2CCOCC2)ccc1OCCC(C)C` (centres undefined), the Potency is reported as inconclusive: 35.5 µM [activator, single point]. With `O=C(OCC(=O)N1CCN(c2ccccc2)CC1)c1ccc(O)cc1O` the Potency was inconclusive: 5.62 µM [activator, single point].
